Source: publication PMC4133371
No constants are given. Whether binding was seen depends on the method and setting. In cells and extracts the contact can be indirect. Some results given as binding are weak or reduced against the parent protein; the word gives no strength.

The chains behind the UniProt entries cited, without tags or fusion partners. Residues count along the entry.
UniProt P09803, residues 734-884: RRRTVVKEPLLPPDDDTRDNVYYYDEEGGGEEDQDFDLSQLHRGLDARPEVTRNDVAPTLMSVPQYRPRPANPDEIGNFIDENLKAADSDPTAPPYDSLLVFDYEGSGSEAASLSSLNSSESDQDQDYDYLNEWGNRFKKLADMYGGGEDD

Molecular target: DsRed-tagged wild-type E-cadherin cytoplasmic domain (DECT) (UniProt P09803)
Test: co-IP; anti-FLAG mAb preabsorbed to protein G-Sepharose; lysates of MDCK stable transfectants (25 mM Tris-HCl pH 7.4, 1% Triton X-100, 2 mM EDTA); immunoblot with anti-β-catenin or anti-plakoglobin

- binding: binds
B1: β-catenin (protein, UniProt B6V8E6 1-781)
chain: MATQADLMELDMAMEPDRKAAVSHWQQQSYLDSGIHSGATTTAPSLSGKGNPEEEDVDTTQVLYEWEQGFSQSFTQEQVADIDGQYAMTRAQRVRAAMFPETLDEGMQIPSTQFDAAHPTNVQRLAEPSQMLKHAVVNLINYQDDAELATRAIPELTKLLNDEDQVVVNKAAVMVHQLSKKEASRHAIMRSPQMVSAIVRTMQNTNDVETARCTAGTLHNLSHHREGLLAIFKSGGIPALVKMLGSPVDSVLFYAITTLHNLLLHQEGAKMAVRLAGGLQKMVALLNKTNVKFLAITTDCLQILAYGNQESKLIILASGGPQALVNIMRTYTYEKLLWTTSRVLKVLSVCSSNKPAIVEAGGMQALGLHLTDPSQRLVQNCLWTLRNLSDAATKQEGMEGLLGTLVQLLGSDDINVVTCAAGILSNLTCNNYKNKMMVCQVGGIEALVRTVLRAGDREDITEPAICALRHLTSRHQEAEMAQNAVRLHYGLPVVVKLLHPPSHWPLIKATVGLIRNLALCPANHAPLREQGAIPRLVQLLVRAHQDTQRRTSMGGTQQQFVEGVRMEEIVEGCTGALHILARDVHNRIVIRGLNTIPLFVQLLYSPIENIQRVAAGVLCELAQDKEAAEAIEAEGATAPLTELLHSRNEGVATYAAAVLFRMSEDKPQDYKKRLSVELTSSLFRTEPMAWNETADLGLDIGAQGEPLGYRQDDPSYRSFHSGGYGQDALGMDPMMEHEMGGHHPGADYPVDGLPDLGHAQDLMDGLPPGDSNQLAWFDTDL
